Laboratory results reported in US20250177558A1, “Functionalized Nanoclusters and Their Use in Treating Bacterial Infections” (priority 2022, published 2025).
At least one compound was matched to its structure with a doubt left.

Tests used:
Test in all cases: Bactericidal activity against stationary-phase culture (CFU/mL)
Conditions in all cases: stationary phase culture in PBS, 4 h
[1] = tested on: stationary-phase culture of E. coli; assay type: cell-based, Escherichia coli
[2] = tested on: stationary-phase culture of K. pneumoniae; assay type: cell-based, Klebsiella pneumoniae
[3] = tested on: stationary-phase culture of P. aeruginosa; assay type: cell-based, Pseudomonas aeruginosa

Measured: bactericidal activity (surviving CFU/mL)

CC1COc2c(N3CCN(C)CC3)c(F)cc3c(=O)c(C(=O)O)cn1c23 (stereo not drawn) [Ofloxacin]
fails to eradicate: all assays above
